# Measurements published in PubChem BioAssay AID624297 (National Center for Advancing Translational Sciences (NCATS), 2012).
# The whole screen tested about 340,000 compounds, of which about 6,200 (1.8%) were called active. Inconclusive means that the source gave no clear call. Such entries were picked first, then a sample of the others. Calls follow the shape of the dose curve; as a rule, active = well fitted activation curve with a large enough effect; inconclusive = small, poorly fitted or top-dose-only effect; inactive = no such curve, though single readings can be large or run the other way. Where the call is inconclusive, the potency comes from a doubtful curve fit.
# Assay: A quantitative high throughput screen for small molecules that induce DNA re-replication in SW480 colon adenocarcinoma cells. Also: nearly all actives have a fitted effect of over 55% in size. As to re-replication activation: % of control where 0% means no effect.
# Conditions: Hoechst DNA content imaging, 48 h; re-replication activation: at 46.1 µM (top of the series) unless noted
# Outline: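 Cells (250 per well) received 23 nL compound or DMSO by pin tool and were kept 48 hr at 37 C, 5% CO2. Nuclei were then stained with Hoechst for 40 min and scanned for DNA content.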
# Potency is read from the fitted curve at half-maximal effect.
SMILES,Potency,re-replication activation
O=C1c2cc(Cl)ccc2-c2c(O)cc(Cl)cc21,"inconclusive: 29.1 µM [activator, single point]",–
COc1cc(CN(C2CC2)S(=O)(=O)c2ccccc2Br)cc(OC)c1,"inconclusive: 14.6 µM [activator, partial curve, poor fit]",–
CCOC(=O)C1C(c2cccc([N+](=O)[O-])c2)C2C(=O)NN=C2CC1(C)O (configuration not stated),–,inactive: 4.87%
C=CCOc1c(Br)cc(CNCCCN2CCOCC2)cc1OC,–,inactive: 0.846%
CN(Cc1ccccc1)C(=O)c1ccc([N+](=O)[O-])o1,active: 6.51 µM,–
CCOC(=O)c1c(CN2CCN(C)CC2)n(C)c2cc(Br)c(OC)cc12,"inconclusive: 29.1 µM [activator, single point]",–
Cc1ccccc1-n1cnc2c(sc3nc(N4CCOCC4)c4c(c32)CCCC4)c1=O,–,inactive: -71%
S=C1CSc2ccccc2N1,–,inactive: -4.49%
CCOc1ccc2nc(NC(=O)Cn3cnc4c3c(=O)n(C)c(=O)n4C)sc2c1,–,inactive: 1.41%
OC(CNCC1CCCO1)Cn1c2ccc(Cl)cc2c2cc(Cl)ccc21 (configuration not stated),–,inactive: 19%
CC(CN(C)Cc1ccccc1)OC(=O)c1cccs1 (configuration not stated),–,inactive: 2.47%
Cc1ccccc1OCCOCCN1CCCCCC1,–,inactive: 4.85%
C/C(CC(=O)NC1CCCCCC1)=N\NC(=O)c1cnccn1,active: 0.517 µM,–
CC(Oc1ccc(C#N)cc1)C(=O)Nc1ccc(-n2cnnn2)cc1 (configuration not stated),–,inactive: -3.97%
Oc1cc2c(cc1C(c1ccc(Cl)c(Cl)c1)N1CCCC1)OCO2 (configuration not stated),"inconclusive: 23.1 µM [activator, single point]",–
O=C(Nc1sc2c(c1C(=O)N1CCOCC1)CCCCC2)c1cccnc1,"inconclusive: 6.51 µM [activator, single point]",–
CCOC(=O)c1cc2cc(OCc3ccccc3)ccc2nc1C,–,inactive: -8.15%
COc1ccc(CN2CC(=O)N(c3ccc(C)cc3)C2=S)cc1OC,–,inactive: 3.36%
CCOC(=O)c1sc(=NC(=O)c2cccc(Br)c2)n(C)c1C,"inconclusive: 3.66 µM [activator, single point]",–
Cn1c(=O)n(CC(=O)O)c(=O)c2c1nc1n2CCCN1Cc1ccccc1,–,inconclusive: -25.1% [activator]
N=c1n(CC(=O)c2cccc([N+](=O)[O-])c2)c2ccccc2n1Cc1ccccc1,"inconclusive: 0.0052 µM [activator, full curve, poor fit]",–
N#Cc1ccccc1COC(=O)c1ccc2c(c1)OCCO2,"inconclusive: 9.2 µM [activator, single point]",–
CN(C)C(=O)c1ccc(Nc2nc(-c3cccs3)nc3ccccc23)cc1,"inconclusive: 29.1 µM [activator, single point]",–
CCCCNC(=O)c1cc2n(n1)C(C(F)(F)F)CC(c1ccccc1)N2 (configuration not stated),–,inactive: -10.1%

SMILES,Potency,re-replication activation
O=C(O)c1cccnc1SC1CC(=O)N(c2ccc(OC(F)F)cc2)C1=O (configuration not stated),"inconclusive: 29.1 µM [activator, single point]",–
c1ccc(N2CC3COc4ccccc4C3=N2)cc1 (configuration not stated),active: 14.6 µM,–
COc1cccc(/C=N/NC(=O)CNC(=O)c2cccnc2)c1O,"inconclusive: 18.4 µM [activator, single point]",–
O=C(Cc1ccccc1)Nc1ccnn1C1CCN(Cc2ccc(CO)o2)CC1,–,inactive: -2.06%
COc1ccccc1NC(=O)CSc1n[nH]c(-c2ccccn2)n1,"inconclusive: 29.1 µM [activator, single point]",–
Cc1ccc(CSCC(=O)N(C)CC(=O)Nc2ccc(Cl)c(Cl)c2)cc1,"inconclusive: 20.6 µM [activator, single point]",–
COc1cc2c(cc1OC)C1(Nc3c-2c(Cc2ccccc2)nn3-c2ccccc2)C(=O)Nc2ccccc21 (configuration not stated),"inconclusive: 16.4 µM [activator, single point]",–
COc1ccc(-n2c(SCC(=O)NCc3ccco3)nc3c([nH]c4ccccc43)c2=O)cc1,"inconclusive: 29.1 µM [activator, single point]",–
CCc1c(C(C)=O)oc2ccc3c(C)cc(=O)oc3c12,–,inactive: -18.3%
c1ccc(CN2CCN(c3nc(NCc4ccco4)c4ccccc4n3)CC2)cc1,"inconclusive: 18.4 µM [activator, single point]",–
Cc1ccc(C2/C(=C(\O)c3ccc4c(c3)OCCO4)C(=O)C(=O)N2Cc2cccnc2)cc1 (configuration not stated),"inconclusive: 6.51 µM [activator, single point]",–
CC(C)[C@@H](C(=O)NCC1CCCO1)N1C(=O)N2CCc3c([nH]c4ccccc34)[C@@]2(C)C1=O (some centres not stated),–,inactive: -1.15%
CCCC1Cc2nc(Cl)c(C#N)cc2CO1 (configuration not stated),"inconclusive: 2.59 µM [activator, single point]",–
O=C(CN(Cc1ccccc1)C(=O)CCC(=O)Nc1nccs1)NCC1CCCO1 (configuration not stated),"inconclusive: 13 µM [activator, partial curve, poor fit]",–
CCOC(=O)C1=CN(Cc2ccco2)S(=O)(=O)N(CC)C1c1ccc(C(F)(F)F)cc1 (configuration not stated),"inconclusive: 29.1 µM [activator, single point]",–
Clc1ccc(Nc2cc(-c3ccccc3)nc3ncnn23)cc1,–,inactive: -135%
CCOc1cc(CNCCO)cc(Br)c1OCc1ccc(Cl)cc1,"inconclusive: 29.1 µM [activator, single point]",–
Cc1ccc(Nc2ncnc3sc(C)c(C)c23)cc1C,"inconclusive: 29.1 µM [activator, partial curve, poor fit]",–
C[C@]12C(=O)N(c3ccc(Cl)cc3)C(=O)N1[C@@H]1c3ccccc3OC[C@@H]1[C@H]2c1ccccc1,"inconclusive: 0.103 µM [activator, full curve, poor fit]",–
Cc1ccc(C(C)C)c(OCCNCCc2ccccc2)c1,"inconclusive: 32.6 µM [activator, single point]",–
CCN(CC)S(=O)(=O)c1cccc2cccnc12,–,inactive: -22.9%
CCOc1ccc(NC(=O)Cc2c(O)c3ccccc3[nH]c2=O)cc1,–,inactive: -0.348%
O=C(NCC1CCCO1)c1ccc(S(=O)(=O)Nc2ccccc2F)cc1 (configuration not stated),"inconclusive: 1.64 µM [activator, partial curve, poor fit]",–
O=S1(=O)CCS(=O)(=O)C1c1ccccc1,"inconclusive: 23.1 µM [activator, partial curve, poor fit]",–

SMILES,Potency,re-replication activation
Cc1ccccc1Nc1nc(NCc2ccco2)c2ccccc2n1,"inconclusive: 29.1 µM [activator, single point]",–
FC(F)(F)c1cc(-c2ccco2)nc(NCc2cccnc2)n1,"inconclusive: 31.6 µM [activator, partial curve, poor fit]",–
CC(C)C(=O)N1CCN(c2ccccc2NC(=O)COc2ccc(C3CCCCC3)cc2)CC1,"inconclusive: 16.4 µM [activator, partial curve, poor fit]",–
CCOc1ccc2nc3cc(NCc4ccc(OC)cc4)ccc3c(N)c2c1,"inconclusive: 8.2 µM [activator, partial curve, poor fit]",–
CCOc1cc(/C=C2\C(=N)N3N=C(S(C)(=O)=O)SC3=NC2=O)ccc1OCCOc1cccc(OC)c1,–,inactive: 6%
N=C(N1CCCc2ccccc21)N1CCCc2ccccc21,"inconclusive: 29.1 µM [activator, single point]",–
CCC(C)(C)C1CCC(=NNC(=S)Nc2cccnc2)CC1 (configuration not stated),"inconclusive: 29.1 µM [activator, single point]",–
C=CCN(c1ccccc1)S(=O)(=O)c1cccc(C(=O)Nc2cc(C)ccn2)c1,"inconclusive: 29.1 µM [activator, single point]",–
O=C(Nc1ccccc1C(=O)N1CCCCC1)c1cccs1,"inconclusive: 0.164 µM [activator, partial curve, poor fit]",–
COc1ccccc1CCN1CCCC(CN(C)C(=O)c2ccoc2)C1 (configuration not stated),–,inactive: 19.6%
CCN(c1ccc(OC)cc1)S(=O)(=O)c1ccc2c(c1)CC(C)N2C(=O)C1CC1 (configuration not stated),–,inactive: -14.9%
C=CCNc1nnc(Cc2ccc(F)cc2)c(=O)[nH]1,–,inactive: 2.7%
CCn1c(CNC(=O)c2ccccc2Br)nnc1SCC(=O)NC1=NCCS1,–,inactive: -4.41%
Nc1ccc(SC(F)(F)F)cc1C(=O)c1ccccc1,"inconclusive: 4.61 µM [activator, full curve, poor fit]",–
O=c1cc(CSc2nnc(Nc3ccccc3F)s2)nc2sccn12,"inconclusive: 23.1 µM [activator, partial curve, poor fit]",–
COc1ccc(S(=O)(=O)N2CCC(C(=O)NC3CCCCC3)CC2)cc1OC,"inconclusive: 29.1 µM [activator, single point]",–
COc1ccc2ccc3cccc[n+]3c2c1,"inconclusive: 18.4 µM [activator, single point]",–
CCOc1ccc(N(CC(=O)Nc2c(C)n(C)n(-c3ccccc3)c2=O)S(=O)(=O)c2ccc(F)cc2)cc1,"inconclusive: 36.6 µM [activator, partial curve, poor fit]",–
CCCN1C(=O)c2cc(C(=O)NC3CCCC3)ccc2C1O (configuration not stated),"inconclusive: 16.4 µM [activator, partial curve, poor fit]",–
Cc1ccc(S(=O)(=O)Nc2cc(-c3nn(C)c(=O)c4ccccc34)ccc2N2CCOCC2)cc1,active: 16.4 µM,–
CCOC(=O)CSc1nc2c(sc(=S)n2-c2ccccc2OC)c(=O)n1Cc1ccco1,–,inactive: 6.51%
CC(NC(=O)COC(=O)c1c[nH]c2ccccc12)c1ccccc1 (configuration not stated),"inconclusive: 11.6 µM [activator, partial curve, poor fit]",–
CCN(CC)c1ccc(C(=O)N/N=C/c2ccc(N3CCOCC3)cc2)cc1,active: 18.4 µM,–
O=C(Cc1nc(=O)c2ccccc2s1)Nc1ccccc1,"inconclusive: 18.4 µM [activator, partial curve, poor fit]",–

# Some values from above.
# Entry for `CC(C)[C@@H](C(=O)NCC1CCCO1)N1C(=O)N2CCc3c([nH]c4ccccc34)[C@@]2(C)C1=O` (some centres not stated) under re-replication activation: inactive: -1.15%
# Entry for `O=C(Cc1ccccc1)Nc1ccnn1C1CCN(Cc2ccc(CO)o2)CC1` under re-replication activation: inactive: -2.06%
# Entry for `C[C@]12C(=O)N(c3ccc(Cl)cc3)C(=O)N1[C@@H]1c3ccccc3OC[C@@H]1[C@H]2c1ccccc1` under Potency: inconclusive: 0.103 µM [activator, full curve, poor fit]
# Entry for `O=C(NCC1CCCO1)c1ccc(S(=O)(=O)Nc2ccccc2F)cc1` (configuration not stated) under Potency: inconclusive: 1.64 µM [activator, partial curve, poor fit]
# Entry for `Cc1ccccc1Nc1nc(NCc2ccco2)c2ccccc2n1` under Potency: inconclusive: 29.1 µM [activator, single point]
